Some of the results follow. Hit calls seldom repeat between salt and free forms of one compound.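 In K562 cells expressing nanoluciferase-fused kinases, luminescence was recorded at 4 h intervals between 2 and 18 h, normalized as percent of control with DMSO at 100% and a positive control at 0%. A significant (2 sigma) signal drop marks a time point as decreased. The authors' rule for a hit is not shown and takes in more than the number of time points.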
How the values were obtained:
Conditions in all cases: K562; 2-18 h
RET = RET (UniProt P07949); assay: kinase-Nluc reporter destabilization hit call (1 = scored as downregulated) (binary); higher = compound decreases kinase abundance
[1] = target: RET_M918T (clone: RET_mut) (UniProt P07949); assay: as above
RIOK1 = RIOK1 (UniProt Q9BRS2); assay: as above
RIPK1 = RIPK1 (UniProt Q13546); assay: as above
RIPK2 = RIPK2 (UniProt O43353); assay: as above
ROR2 = ROR2 (UniProt Q01974); assay: as above
RPS6KA1 = RPS6KA1 (UniProt Q15418); assay: as above
SPHK1 = SPHK1 (UniProt Q9NYA1); assay: as above
SRC = SRC (UniProt P12931); assay: as above
STK24 = STK24 (UniProt Q9Y6E0); assay: as above
STK38 = STK38 (UniProt Q15208); assay: as above
SYK = SYK (UniProt P43405); assay: as above
TEC = TEC (UniProt P42680); assay: as above
TYK2 = TYK2 (UniProt P29597); assay: as above
ULK3 = ULK3 (UniProt Q6PHR2); assay: as above
YES1 = YES1 (UniProt P07947); assay: as above
ZAK = ZAK (UniProt Q9NYL2); assay: as above
ZAP70 = ZAP70 (UniProt P43403); assay: as above
ABL1 = ABL1 (UniProt P00519); assay: number of time points (of 5) at which kinase-Nluc abundance scored as decreased, DMSO-normalised (count); higher = more persistent destabilization
AKT1 = AKT1 (UniProt P31749); assay: as above

Chains of the proteins cited; added tags and fusions are not shown. Lines headed by an entry give the natural chain unless they say otherwise; changes in a name come on top.
UniProt P07949, whole entry, looked up: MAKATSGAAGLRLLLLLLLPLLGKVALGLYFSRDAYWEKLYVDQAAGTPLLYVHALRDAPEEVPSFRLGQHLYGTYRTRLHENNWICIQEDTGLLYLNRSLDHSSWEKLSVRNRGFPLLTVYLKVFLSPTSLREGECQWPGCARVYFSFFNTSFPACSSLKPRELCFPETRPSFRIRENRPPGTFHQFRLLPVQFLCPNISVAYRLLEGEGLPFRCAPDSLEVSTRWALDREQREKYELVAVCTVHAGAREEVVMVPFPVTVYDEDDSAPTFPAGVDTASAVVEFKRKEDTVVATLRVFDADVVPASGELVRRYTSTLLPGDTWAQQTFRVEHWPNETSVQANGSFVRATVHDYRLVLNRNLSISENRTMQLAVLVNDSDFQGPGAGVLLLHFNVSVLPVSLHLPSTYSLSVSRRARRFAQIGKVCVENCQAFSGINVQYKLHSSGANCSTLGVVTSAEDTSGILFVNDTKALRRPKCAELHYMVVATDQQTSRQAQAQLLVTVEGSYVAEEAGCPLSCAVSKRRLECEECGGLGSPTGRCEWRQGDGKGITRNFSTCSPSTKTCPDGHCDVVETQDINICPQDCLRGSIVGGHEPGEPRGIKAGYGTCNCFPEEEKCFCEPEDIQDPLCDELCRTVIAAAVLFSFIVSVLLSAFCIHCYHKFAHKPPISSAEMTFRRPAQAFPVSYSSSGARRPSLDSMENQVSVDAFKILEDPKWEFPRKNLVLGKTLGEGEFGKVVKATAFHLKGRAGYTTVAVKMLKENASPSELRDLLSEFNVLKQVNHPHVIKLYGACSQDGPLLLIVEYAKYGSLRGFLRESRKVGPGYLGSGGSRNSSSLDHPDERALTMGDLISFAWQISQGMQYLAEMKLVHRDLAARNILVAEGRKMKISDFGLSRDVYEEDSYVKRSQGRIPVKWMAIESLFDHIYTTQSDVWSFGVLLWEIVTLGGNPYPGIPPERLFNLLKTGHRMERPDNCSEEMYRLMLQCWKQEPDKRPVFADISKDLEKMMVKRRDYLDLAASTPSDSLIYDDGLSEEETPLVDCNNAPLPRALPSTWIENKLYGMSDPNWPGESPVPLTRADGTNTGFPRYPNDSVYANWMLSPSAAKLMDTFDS
UniProt Q13546: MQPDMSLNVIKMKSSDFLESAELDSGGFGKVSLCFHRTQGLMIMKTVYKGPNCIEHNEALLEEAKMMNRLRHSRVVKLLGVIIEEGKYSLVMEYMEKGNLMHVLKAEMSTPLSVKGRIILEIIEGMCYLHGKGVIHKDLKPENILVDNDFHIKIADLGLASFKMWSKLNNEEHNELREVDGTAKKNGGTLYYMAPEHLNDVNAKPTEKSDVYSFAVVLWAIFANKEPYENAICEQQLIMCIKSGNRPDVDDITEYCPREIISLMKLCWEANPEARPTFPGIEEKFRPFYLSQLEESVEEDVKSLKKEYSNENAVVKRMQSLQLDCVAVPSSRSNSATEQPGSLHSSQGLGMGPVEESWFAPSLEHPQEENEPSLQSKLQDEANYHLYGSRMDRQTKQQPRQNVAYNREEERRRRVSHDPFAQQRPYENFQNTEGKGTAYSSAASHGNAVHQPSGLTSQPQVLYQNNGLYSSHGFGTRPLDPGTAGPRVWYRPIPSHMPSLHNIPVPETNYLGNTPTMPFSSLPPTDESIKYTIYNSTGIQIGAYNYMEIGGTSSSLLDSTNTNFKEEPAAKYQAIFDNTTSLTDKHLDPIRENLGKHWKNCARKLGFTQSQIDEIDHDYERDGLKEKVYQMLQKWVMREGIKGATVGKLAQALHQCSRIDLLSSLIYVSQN
UniProt Q15418, whole entry: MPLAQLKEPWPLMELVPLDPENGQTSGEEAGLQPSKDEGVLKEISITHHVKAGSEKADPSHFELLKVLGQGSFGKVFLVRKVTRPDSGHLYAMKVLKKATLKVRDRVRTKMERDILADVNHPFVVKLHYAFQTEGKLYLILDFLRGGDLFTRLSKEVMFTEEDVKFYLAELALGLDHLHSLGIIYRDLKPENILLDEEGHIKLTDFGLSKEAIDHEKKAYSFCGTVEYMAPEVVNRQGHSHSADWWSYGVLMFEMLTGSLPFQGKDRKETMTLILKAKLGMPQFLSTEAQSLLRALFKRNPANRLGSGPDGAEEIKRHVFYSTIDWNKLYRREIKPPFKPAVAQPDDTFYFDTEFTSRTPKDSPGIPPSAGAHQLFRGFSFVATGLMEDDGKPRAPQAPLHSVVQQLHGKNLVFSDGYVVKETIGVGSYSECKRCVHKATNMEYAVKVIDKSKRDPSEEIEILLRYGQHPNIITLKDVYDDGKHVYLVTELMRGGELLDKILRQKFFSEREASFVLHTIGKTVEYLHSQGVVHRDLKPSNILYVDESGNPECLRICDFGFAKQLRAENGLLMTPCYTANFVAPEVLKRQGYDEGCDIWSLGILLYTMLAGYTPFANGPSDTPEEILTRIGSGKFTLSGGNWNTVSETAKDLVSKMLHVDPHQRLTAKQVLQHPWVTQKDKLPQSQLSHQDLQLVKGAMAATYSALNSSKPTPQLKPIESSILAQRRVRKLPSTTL
UniProt Q9NYA1, whole entry: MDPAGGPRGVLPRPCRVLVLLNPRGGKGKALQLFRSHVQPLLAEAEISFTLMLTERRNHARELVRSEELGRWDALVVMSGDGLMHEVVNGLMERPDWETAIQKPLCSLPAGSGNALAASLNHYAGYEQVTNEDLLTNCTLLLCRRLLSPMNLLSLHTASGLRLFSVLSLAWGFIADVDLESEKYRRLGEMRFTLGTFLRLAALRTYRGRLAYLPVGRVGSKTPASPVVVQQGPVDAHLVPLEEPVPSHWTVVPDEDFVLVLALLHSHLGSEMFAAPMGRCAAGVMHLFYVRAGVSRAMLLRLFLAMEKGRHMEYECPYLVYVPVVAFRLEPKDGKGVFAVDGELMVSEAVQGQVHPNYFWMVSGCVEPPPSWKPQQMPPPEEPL
UniProt Q9Y6E0: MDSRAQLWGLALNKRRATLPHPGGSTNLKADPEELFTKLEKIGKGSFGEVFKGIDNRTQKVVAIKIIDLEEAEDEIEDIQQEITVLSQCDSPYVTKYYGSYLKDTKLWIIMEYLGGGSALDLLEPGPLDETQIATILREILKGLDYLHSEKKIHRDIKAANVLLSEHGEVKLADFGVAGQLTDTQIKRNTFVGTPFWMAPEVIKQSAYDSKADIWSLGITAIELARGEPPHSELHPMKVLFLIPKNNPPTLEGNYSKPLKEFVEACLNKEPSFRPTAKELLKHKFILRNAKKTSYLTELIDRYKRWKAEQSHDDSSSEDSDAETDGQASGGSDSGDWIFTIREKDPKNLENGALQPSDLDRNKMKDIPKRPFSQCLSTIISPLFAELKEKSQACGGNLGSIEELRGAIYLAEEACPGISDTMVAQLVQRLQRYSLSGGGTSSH
UniProt P29597: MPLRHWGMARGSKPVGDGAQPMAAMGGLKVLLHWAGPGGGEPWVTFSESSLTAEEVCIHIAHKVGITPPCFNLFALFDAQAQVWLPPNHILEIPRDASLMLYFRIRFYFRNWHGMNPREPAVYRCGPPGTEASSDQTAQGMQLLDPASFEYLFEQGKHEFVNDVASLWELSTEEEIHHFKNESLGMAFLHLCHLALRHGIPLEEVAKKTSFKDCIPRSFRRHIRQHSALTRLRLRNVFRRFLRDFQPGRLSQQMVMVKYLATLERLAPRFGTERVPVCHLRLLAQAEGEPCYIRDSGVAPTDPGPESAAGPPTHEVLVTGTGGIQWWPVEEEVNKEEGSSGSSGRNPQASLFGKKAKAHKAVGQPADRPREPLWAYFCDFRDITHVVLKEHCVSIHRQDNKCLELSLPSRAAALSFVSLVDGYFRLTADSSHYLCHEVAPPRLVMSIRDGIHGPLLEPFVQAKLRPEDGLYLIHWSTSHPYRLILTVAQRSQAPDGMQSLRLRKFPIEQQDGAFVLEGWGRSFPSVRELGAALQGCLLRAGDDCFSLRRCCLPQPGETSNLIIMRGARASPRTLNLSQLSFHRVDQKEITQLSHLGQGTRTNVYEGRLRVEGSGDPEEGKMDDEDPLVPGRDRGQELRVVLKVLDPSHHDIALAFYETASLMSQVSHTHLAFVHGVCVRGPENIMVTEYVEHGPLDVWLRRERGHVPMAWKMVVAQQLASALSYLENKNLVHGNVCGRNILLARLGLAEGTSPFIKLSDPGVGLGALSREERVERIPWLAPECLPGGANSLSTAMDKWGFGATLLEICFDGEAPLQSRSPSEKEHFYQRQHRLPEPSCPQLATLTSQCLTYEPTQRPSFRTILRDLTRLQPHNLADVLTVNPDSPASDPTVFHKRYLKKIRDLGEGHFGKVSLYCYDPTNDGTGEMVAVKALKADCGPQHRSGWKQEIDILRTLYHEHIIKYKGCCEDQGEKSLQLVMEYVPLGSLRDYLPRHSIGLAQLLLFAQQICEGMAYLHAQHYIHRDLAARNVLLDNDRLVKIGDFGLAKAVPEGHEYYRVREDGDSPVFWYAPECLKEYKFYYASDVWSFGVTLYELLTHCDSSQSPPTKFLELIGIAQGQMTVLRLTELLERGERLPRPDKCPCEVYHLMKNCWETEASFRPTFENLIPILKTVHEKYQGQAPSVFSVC
UniProt Q6PHR2: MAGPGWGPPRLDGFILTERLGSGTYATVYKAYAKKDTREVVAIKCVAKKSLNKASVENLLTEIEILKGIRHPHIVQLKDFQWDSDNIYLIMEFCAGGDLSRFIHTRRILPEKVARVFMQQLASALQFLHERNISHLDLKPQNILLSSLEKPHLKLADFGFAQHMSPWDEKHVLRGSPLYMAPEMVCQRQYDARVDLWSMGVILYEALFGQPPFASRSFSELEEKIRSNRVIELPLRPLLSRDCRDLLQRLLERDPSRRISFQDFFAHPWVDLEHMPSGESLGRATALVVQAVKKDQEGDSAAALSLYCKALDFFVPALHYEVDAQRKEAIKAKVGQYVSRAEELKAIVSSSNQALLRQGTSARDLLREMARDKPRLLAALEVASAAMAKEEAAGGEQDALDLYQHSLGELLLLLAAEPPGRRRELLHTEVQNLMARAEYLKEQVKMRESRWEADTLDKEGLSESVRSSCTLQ
UniProt P07947, whole entry, looked up: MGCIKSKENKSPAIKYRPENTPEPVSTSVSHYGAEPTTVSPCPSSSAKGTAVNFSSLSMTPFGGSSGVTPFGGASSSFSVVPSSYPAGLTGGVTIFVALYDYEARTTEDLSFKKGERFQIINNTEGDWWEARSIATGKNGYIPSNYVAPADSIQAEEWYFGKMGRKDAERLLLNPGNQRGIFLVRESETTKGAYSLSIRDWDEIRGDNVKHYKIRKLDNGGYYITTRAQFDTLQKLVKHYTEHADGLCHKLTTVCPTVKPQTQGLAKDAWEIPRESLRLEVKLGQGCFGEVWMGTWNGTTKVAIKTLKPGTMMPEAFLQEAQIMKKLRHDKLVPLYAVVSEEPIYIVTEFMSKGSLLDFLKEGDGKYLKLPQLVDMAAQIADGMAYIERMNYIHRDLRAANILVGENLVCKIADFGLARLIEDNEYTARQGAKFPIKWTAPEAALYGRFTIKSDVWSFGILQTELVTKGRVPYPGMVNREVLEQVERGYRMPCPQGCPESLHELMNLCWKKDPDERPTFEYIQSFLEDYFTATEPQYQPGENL
UniProt P43403: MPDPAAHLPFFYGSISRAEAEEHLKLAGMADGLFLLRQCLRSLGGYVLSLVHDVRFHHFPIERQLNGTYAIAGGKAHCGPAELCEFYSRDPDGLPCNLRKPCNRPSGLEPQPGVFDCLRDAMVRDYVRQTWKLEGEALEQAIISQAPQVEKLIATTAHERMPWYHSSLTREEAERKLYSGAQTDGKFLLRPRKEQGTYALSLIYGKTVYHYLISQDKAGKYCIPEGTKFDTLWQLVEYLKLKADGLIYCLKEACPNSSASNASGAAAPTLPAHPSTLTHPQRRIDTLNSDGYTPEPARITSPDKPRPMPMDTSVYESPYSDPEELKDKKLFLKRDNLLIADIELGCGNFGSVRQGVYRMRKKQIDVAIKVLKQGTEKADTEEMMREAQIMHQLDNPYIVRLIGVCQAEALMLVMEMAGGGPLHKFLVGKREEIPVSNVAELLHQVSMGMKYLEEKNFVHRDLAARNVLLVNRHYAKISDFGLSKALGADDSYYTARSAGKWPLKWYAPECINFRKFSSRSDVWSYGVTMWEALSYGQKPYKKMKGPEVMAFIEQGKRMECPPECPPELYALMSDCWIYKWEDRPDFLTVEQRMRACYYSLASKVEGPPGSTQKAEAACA

Row | SMILES | kinase-Nluc reporter destabilization hit call (RET) | kinase-Nluc reporter destabilization hit call [1] | kinase-Nluc reporter destabilization hit call (RIOK1) | kinase-Nluc reporter destabilization hit call (RIPK1) | kinase-Nluc reporter destabilization hit call (RIPK2) | kinase-Nluc reporter destabilization hit call (ROR2) | kinase-Nluc reporter destabilization hit call (RPS6KA1) | kinase-Nluc reporter destabilization hit call (SPHK1) | kinase-Nluc reporter destabilization hit call (SRC) | kinase-Nluc reporter destabilization hit call (STK24) | kinase-Nluc reporter destabilization hit call (STK38) | kinase-Nluc reporter destabilization hit call (SYK) | kinase-Nluc reporter destabilization hit call (TEC) | kinase-Nluc reporter destabilization hit call (TYK2) | kinase-Nluc reporter destabilization hit call (ULK3) | kinase-Nluc reporter destabilization hit call (YES1) | kinase-Nluc reporter destabilization hit call (ZAK) | kinase-Nluc reporter destabilization hit call (ZAP70) | number of time points (ABL1) | number of time points (AKT1)
1 | COc1ccccc1-c1cc(Nc2cccc(CS(N)(=O)=O)c2)ncn1 (10 µM) | inactive: 0 | inactive: 0 | inactive: 0 | inactive: 0 | inactive: 0 | inactive: 0 | inactive: 0 | inactive: 0 | inactive: 0 | inactive: 0 | inactive: 0 | inactive: 0 | inactive: 0 | inactive: 0 | inactive: 0 | inactive: 0 | inactive: 0 | inactive: 0 | 0 | 0
2 | CC[C@@H](Oc1nc(Oc2cc(C)cc(-c3cccc(CN)c3)c2)c(F)cc1F)C(=O)O (10 µM) | inactive: 0 | inactive: 0 | inactive: 0 | inactive: 0 | inactive: 0 | inactive: 0 | inactive: 0 | inactive: 0 | inactive: 0 | inactive: 0 | inactive: 0 | inactive: 0 | inactive: 0 | inactive: 0 | inactive: 0 | inactive: 0 | inactive: 0 | inactive: 0 | 0 | 0
3 | CC1(C)C(O[C@@H]2OC[C@@H](O)[C@H](O)[C@H]2O)CC[C@]23CC24CC[C@]2(C)[C@@H]([C@@]5(C)CC[C@@H](C(C)(C)O)O5)[C@H](O)C[C@@]2(C)C4C[C@@H](O[C@@H]2O[C@H](CO)[C@@H](O)[C@H](O)[C@H]2O)C13 (stereo not given in full) [Astragaloside IV] (10 µM) | inactive: 0 | inactive: 0 | inactive: 0 | inactive: 0 | inactive: 0 | inactive: 0 | inactive: 0 | inactive: 0 | inactive: 0 | inactive: 0 | inactive: 0 | inactive: 0 | inactive: 0 | inactive: 0 | inactive: 0 | inactive: 0 | inactive: 0 | inactive: 0 | 0 | 0
4 | CC(=O)c1c(C)cc2cccc(O)c2c1O [Nepodin] (10 µM) | inactive: 0 | inactive: 0 | inactive: 0 | inactive: 0 | inactive: 0 | inactive: 0 | inactive: 0 | inactive: 0 | inactive: 0 | inactive: 0 | inactive: 0 | inactive: 0 | inactive: 0 | inactive: 0 | inactive: 0 | inactive: 0 | inactive: 0 | inactive: 0 | 0 | 0
5 | CNC(=O)c1cc(COc2nnc(Nc3ccc(Cl)cc3)c3ccoc23)ccn1 [Telatinib] (10 µM) | inactive: 0 | inactive: 0 | inactive: 0 | inactive: 0 | inactive: 0 | inactive: 0 | inactive: 0 | inactive: 0 | inactive: 0 | inactive: 0 | inactive: 0 | inactive: 0 | inactive: 0 | inactive: 0 | inactive: 0 | inactive: 0 | inactive: 0 | inactive: 0 | 0 | 0
6 | Nc1nc(F)nc2c1ncn2[C@@H]1O[C@H](CO)[C@@H](O)[C@@H]1O [Fludarabine] (10 µM) | inactive: 0 | inactive: 0 | inactive: 0 | inactive: 0 | inactive: 0 | inactive: 0 | inactive: 0 | inactive: 0 | inactive: 0 | inactive: 0 | inactive: 0 | inactive: 0 | inactive: 0 | inactive: 0 | inactive: 0 | inactive: 0 | inactive: 0 | inactive: 0 | 0 | 0
7 | Cc1cc(=O)oc2c(C=O)c(O)ccc12 (10 µM) | inactive: 0 | inactive: 0 | inactive: 0 | inactive: 0 | inactive: 0 | inactive: 0 | inactive: 0 | inactive: 0 | inactive: 0 | inactive: 0 | inactive: 0 | inactive: 0 | inactive: 0 | inactive: 0 | inactive: 0 | inactive: 0 | inactive: 0 | inactive: 0 | 0 | 0
8 | CC#CC(=O)Nc1ccc2ncnc(Nc3cccc(Br)c3)c2c1 (10 µM) | inactive: 0 | inactive: 0 | inactive: 0 | inactive: 0 | inactive: 0 | inactive: 0 | inactive: 0 | inactive: 0 | inactive: 0 | inactive: 0 | inactive: 0 | inactive: 0 | inactive: 0 | inactive: 0 | inactive: 0 | inactive: 0 | inactive: 0 | inactive: 0 | 3 | 0
9 | COc1cc(Nc2ncc(F)c(Nc3ccc4c(n3)N(COP(=O)(O)O)C(=O)C(C)(C)O4)n2)cc(OC)c1OC [Fostamatinib (disodium hexahydrate)] (10 µM) | inactive: 0 | inactive: 0 | inactive: 0 | inactive: 0 | inactive: 0 | inactive: 0 | inactive: 0 | inactive: 0 | inactive: 0 | inactive: 0 | inactive: 0 | inactive: 0 | inactive: 0 | inactive: 0 | inactive: 0 | inactive: 0 | inactive: 0 | inactive: 0 | 0 | 0
10 | O=C1NC(=O)/C(=C/c2ccc3nccnc3c2)S1 (10 µM) | inactive: 0 | inactive: 0 | inactive: 0 | inactive: 0 | inactive: 0 | inactive: 0 | inactive: 0 | inactive: 0 | inactive: 0 | inactive: 0 | inactive: 0 | inactive: 0 | inactive: 0 | inactive: 0 | inactive: 0 | inactive: 0 | inactive: 0 | inactive: 0 | 0 | 0

Complete entries, quoted from the list. Order of values: kinase-Nluc reporter destabilization hit call (RET) | kinase-Nluc reporter destabilization hit call [1] | kinase-Nluc reporter destabilization hit call (RIOK1) | kinase-Nluc reporter destabilization hit call (RIPK1) | kinase-Nluc reporter destabilization hit call (RIPK2) | kinase-Nluc reporter destabilization hit call (ROR2) | kinase-Nluc reporter destabilization hit call (RPS6KA1) | kinase-Nluc reporter destabilization hit call (SPHK1) | kinase-Nluc reporter destabilization hit call (SRC) | kinase-Nluc reporter destabilization hit call (STK24) | kinase-Nluc reporter destabilization hit call (STK38) | kinase-Nluc reporter destabilization hit call (SYK) | kinase-Nluc reporter destabilization hit call (TEC) | kinase-Nluc reporter destabilization hit call (TYK2) | kinase-Nluc reporter destabilization hit call (ULK3) | kinase-Nluc reporter destabilization hit call (YES1) | kinase-Nluc reporter destabilization hit call (ZAK) | kinase-Nluc reporter destabilization hit call (ZAP70) | number of time points (ABL1) | number of time points (AKT1)
`COc1ccccc1-c1cc(Nc2cccc(CS(N)(=O)=O)c2)ncn1` (10 µM) as listed: inactive: 0 | inactive: 0 | inactive: 0 | inactive: 0 | inactive: 0 | inactive: 0 | inactive: 0 | inactive: 0 | inactive: 0 | inactive: 0 | inactive: 0 | inactive: 0 | inactive: 0 | inactive: 0 | inactive: 0 | inactive: 0 | inactive: 0 | inactive: 0 | 0 | 0
`CC[C@@H](Oc1nc(Oc2cc(C)cc(-c3cccc(CN)c3)c2)c(F)cc1F)C(=O)O` (10 µM) as listed: inactive: 0 | inactive: 0 | inactive: 0 | inactive: 0 | inactive: 0 | inactive: 0 | inactive: 0 | inactive: 0 | inactive: 0 | inactive: 0 | inactive: 0 | inactive: 0 | inactive: 0 | inactive: 0 | inactive: 0 | inactive: 0 | inactive: 0 | inactive: 0 | 0 | 0
